# Results reported in PMC4616163, “Inverse relationship between chitobiase and transglycosylation activities of chitinase-D from Serratia proteamaculans revealed by mutational and biophysical analyses” (Scientific Reports, 2015).
# Test system: SpChiD mutant E153A
# Test: DSC ligand-induced thermal stability of E153A with CHOS DP2–6
# Format: binding, Serratia proteamaculans
# Details: E153A alone or with 1 mM ligand
# Procedure: DSC measurements were carried out on a MicroCal VP-DSC (MicroCal LLC, Northampton, MA, USA). SpChiD and mutant E153A were dialyzed against 20 mM potassium phosphate buffer, pH 8.0. The dialysate was used as the reference. Protein samples (0.5 mg/mL) were heated from 10–70 °C at a scan rate of 30°/h to assess the effect of ligand binding on thermal unfolding. Mutant E153A was pre-incubated for 1 h with 1 mM of each ligand (DP2–6) before scanning. Sample and reference solutions were degassed prior to scanning to eliminate bubbling effects. Baseline reproducibility was verified by multiple scans, and the reversibility of protein unfolding was monitored by scanning the sample twice. Buffer scans were subtracted from thermograms obtained in the presence or absence of CHOS before further analysis. Absolute and excess heat capacities were analyzed using a non-two-state fit of the thermogram in Origin v7.0.
smiles,measurement,value
CC(=O)N[C@H]1[C@H](O[C@H]2[C@H](O)[C@@H](NC(C)=O)C(O)O[C@@H]2CO)O[C@H](CO)[C@@H](O)[C@@H]1O (stereo partly drawn) [DP2],ΔHC Transition-I,798.5 ± 7.14 kcal/mol
same,ΔHC Transition-II,22.03 ± 4.1 kcal/mol
same,ΔHC/ΔHv Transition-I,7.49
same,ΔHC/ΔHv Transition-II,0.04
same,ΔHv Transition-I,106.5 ± 1.07 kcal/mol
same,ΔHv Transition-II,499.5 ± 92.1 kcal/mol
CC(=O)N[C@H]1[C@H](O[C@H]2[C@H](O)[C@@H](NC(C)=O)C(O)O[C@@H]2CO)O[C@H](CO)[C@@H](O[C@@H]2O[C@H](CO)[C@@H](O)[C@H](O)[C@H]2NC(C)=O)[C@@H]1O (stereo partly drawn) [DP3],ΔHC Transition-I,395.1 ± 49.3 kcal/mol
same,ΔHC Transition-II,556.6 ± 46.4 kcal/mol
same,ΔHC/ΔHv Transition-I,4.53
same,ΔHC/ΔHv Transition-II,3.36
same,ΔHv Transition-I,87.17 ± 3.71 kcal/mol
same,ΔHv Transition-II,165.3 ± 6.23 kcal/mol
CC(=O)N[C@H]1[C@H](O[C@H]2[C@H](O)[C@@H](NC(C)=O)C(O)O[C@@H]2CO)O[C@H](CO)[C@@H](O[C@@H]2O[C@H](CO)[C@@H](O[C@@H]3O[C@H](CO)[C@@H](O)[C@H](O)[C@H]3NC(C)=O)[C@H](O)[C@H]2NC(C)=O)[C@@H]1O (stereo partly drawn) [DP4],ΔHC Transition-I,361.6 ± 38.7 kcal/mol
same,ΔHC Transition-II,643.0 ± 35.0 kcal/mol
same,ΔHC/ΔHv Transition-I,5.09
same,ΔHC/ΔHv Transition-II,4.19
same,ΔHv Transition-I,70.95 ± 3.63 kcal/mol
same,ΔHv Transition-II,153.2 ± 4.33 kcal/mol
CC(=O)N[C@H]1[C@H](O[C@H]2[C@H](O)[C@@H](NC(C)=O)[C@H](O[C@H]3[C@H](O)[C@@H](NC(C)=O)C(O)O[C@@H]3CO)O[C@@H]2CO)O[C@H](CO)[C@@H](O[C@@H]2O[C@H](CO)[C@@H](O[C@@H]3O[C@H](CO)[C@@H](O)[C@H](O)[C@H]3NC(C)=O)[C@H](O)[C@H]2NC(C)=O)[C@@H]1O (stereo partly drawn) [DP5],ΔHC Transition-I,537.9 ± 61.8 kcal/mol
same,ΔHC Transition-II,500.5 ± 59.8 kcal/mol
same,ΔHC/ΔHv Transition-I,4.34
same,ΔHC/ΔHv Transition-II,2.46
same,ΔHv Transition-I,123.8 ± 3.94 kcal/mol
same,ΔHv Transition-II,203.4 ± 10.2 kcal/mol
"CC(=O)N[C@H]1[C@H](O[C@H]2[C@H](O)[C@@H](NC(C)=O)[C@H](O[C@H]3[C@H](O)[C@@H](NC(C)=O)C(O)O[C@@H]3CO)O[C@@H]2CO)O[C@H](CO)[C@@H](O[C@@H]2O[C@H](CO)[C@@H](O[C@@H]3O[C@H](CO)[C@@H](O[C@@H]4O[C@H](CO)[C@@H](O)[C@H](O)[C@H]4NC(C)=O)[C@H](O)[C@H]3NC(C)=O)[C@H](O)[C@H]2NC(C)=O)[C@@H]1O (stereo partly drawn) [DP6, chitohexaose]",ΔHC Transition-I,379.6 ± 36.7 kcal/mol
same,ΔHC Transition-II,234.5 ± 35.2 kcal/mol
same,ΔHC/ΔHv Transition-I,2.14
same,ΔHC/ΔHv Transition-II,0.76
same,ΔHv Transition-I,176.8 ± 4.67 kcal/mol
same,ΔHv Transition-II,306.9 ± 22.1 kcal/mol
